Test results taken from US8642555B2 (KTB Tumorforschungsgesellschaft mbH, priority 2009, dated 2014).

Experiment: general procedure: peptide synthesis; DIPC/HOBt, 4-methylmorpholine
Conditions: coupling step

| Substance | step yield [%] | final HPLC purity (495 nm) [%] | final HPLC purity (230 nm) [%] |
| --- | --- | --- | --- |
| {Hexanoyl(6-maleimido)}-[ξR][ξS][ξS][ξY][ξY][ξS][ξL][PABC]-X1 (SMILES COc1cccc2c1C(=O)c1c(O)c3c(c(O)c1C2=O)C[C@@](O)(C(=O)CO)CC3O[C@H]1C[C@@H](NC(=O)OCc2ccc(NC(=O)C(CC(C)C)NC(=O)C(CO)NC(=O)C(Cc3ccc(O)cc3)NC(=O)C(Cc3ccc(O)cc3)NC(=O)C(CO)NC(=O)C(CO)NC(=O)C(CCCNC(=N)N)NC(=O)CCCCCN3C(=O)C=CC3=O)cc2)C(O)[C@H](C)O1) | 73 | >95 |  |
| PEPTIDE1{[EMC].[xArg].[xSer].[xSer].[xTyr].[xTyr].[xSer].[xLeu].[PABC-Paclitaxel]}$$$$V2.0 | 45 |  | >95 |

Some peptides are written in HELM: one residue between dots, names in brackets for other building blocks, links after the first $. Numbered stars: 1 amine (or outer) side, 2 acyl side, 3 side chain; on linkers, the order of the positions; unused ones are H or OH. Square brackets hold non-standard residues; d marks the D form. * marks the point of attachment. ξ: configuration not given here. X1 = COc1cccc2c1C(=O)c1c(O)c3c(c(O)c1C2=O)C[C@@](O)(C(=O)CO)CC3O[C@H]1C[C@@H](N*)C(O)[C@H](C)O1; Hexanoyl(6-maleimido) = O=C1C=CC(=O)N1CCCCCC(=O)*; PABC = O=C(OCc1ccc(N[*:1])cc1)[*:2]; ξY = NC(Cc1ccc(O)cc1)C(=O)O; ξR = N=C(N)NCCCC(N)C(=O)O; ξL = CC(C)CC(N)C(=O)O; ξS = NC(CO)C(=O)O
